Measured data: PubChem BioAssay AID1224828 (NIAID, 2016)

Purpose: 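Find genes required for NF-kappaB p65 moving into the nucleus after LPS in mouse macrophages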 (primary screen)
Cells: mouse RAW264.7 G9 macrophage reporter cells (GFP-p65, Tnf promoter-mCherry)
Knock-down reagent: siRNA pool against mouse genes, 100 nM
Timing: 2 days siRNA transfection, then 40 min LPS before fixation
Conditions: LPS (Salmonella minnesota R595) at 10 ng/ml
Measurement: 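Imaged p65 nuclear translocation ratio, normalised to the plate median, converted to robust z-scores and averaged across two replicates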
Direction: p65 translocation robust z-score: higher = more nuclear NF-kappaB p65 after LPS than the plate median; nuclear/cytoplasmic p65 ratio: higher = more nuclear NF-kappaB p65
Active means: 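Active if robust z is above 3.3 (negative regulators) or below -1.56, the Tlr4 control median (positive regulators); activity score 50 or more; control wells not called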
Calls: active = hit (p65 shift raised or lowered); inactive = no clear change
This is a random part of about 17,000 deposited reagents. 762 of them (4.5%) were called active. 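Active calls include both raised and lowered p65 entry, mostly lowered; wells with fewer than 50 cells lack a z-score.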 The raw values are shown without normalisation.

Umodl1 | p65 translocation robust z-score = -0.7; nuclear/cytoplasmic p65 ratio, rep 1 = 1.43; nuclear/cytoplasmic p65 ratio, rep 2 = 1.49; low cell count flag = enough cells to score; activity call = inactive
Tbxa2r | p65 translocation robust z-score = -1.19; nuclear/cytoplasmic p65 ratio, rep 1 = 1.41; nuclear/cytoplasmic p65 ratio, rep 2 = 1.34; low cell count flag = enough cells to score; activity call = inactive
4632415L05Rik | nuclear/cytoplasmic p65 ratio, rep 1 = 1.15; nuclear/cytoplasmic p65 ratio, rep 2 = 1.11; low cell count flag = fewer than 50 cells per well; well left out of scoring; activity call = inactive
Lingo2 | p65 translocation robust z-score = -0.07; nuclear/cytoplasmic p65 ratio, rep 1 = 1.48; nuclear/cytoplasmic p65 ratio, rep 2 = 1.62; low cell count flag = enough cells to score; activity call = inactive
Foxo1 | p65 translocation robust z-score = -0.42; nuclear/cytoplasmic p65 ratio, rep 1 = 1.31; nuclear/cytoplasmic p65 ratio, rep 2 = 1.39; low cell count flag = enough cells to score; activity call = inactive
Vmn1r8 | p65 translocation robust z-score = 1.82; nuclear/cytoplasmic p65 ratio, rep 1 = 1.67; nuclear/cytoplasmic p65 ratio, rep 2 = 1.4; low cell count flag = enough cells to score; activity call = inactive
Hsdl2 | nuclear/cytoplasmic p65 ratio, rep 1 = 1.46; nuclear/cytoplasmic p65 ratio, rep 2 = 1.43; low cell count flag = fewer than 50 cells per well; well left out of scoring; activity call = inactive
Epc1 | p65 translocation robust z-score = -0.75; nuclear/cytoplasmic p65 ratio, rep 1 = 1.39; nuclear/cytoplasmic p65 ratio, rep 2 = 1.26; low cell count flag = enough cells to score; activity call = inactive
Cyfip1 | p65 translocation robust z-score = -0.61; nuclear/cytoplasmic p65 ratio, rep 1 = 1.43; nuclear/cytoplasmic p65 ratio, rep 2 = 1.75; low cell count flag = enough cells to score; activity call = inactive
Nhsl1 | nuclear/cytoplasmic p65 ratio, rep 1 = 1.33; nuclear/cytoplasmic p65 ratio, rep 2 = 1.62; low cell count flag = fewer than 50 cells per well; well left out of scoring; activity call = inactive
Mal2 | p65 translocation robust z-score = 1.78; nuclear/cytoplasmic p65 ratio, rep 1 = 1.89; nuclear/cytoplasmic p65 ratio, rep 2 = 1.94; low cell count flag = enough cells to score; activity call = inactive
Zfp637 | p65 translocation robust z-score = -1.2; nuclear/cytoplasmic p65 ratio, rep 1 = 1.69; nuclear/cytoplasmic p65 ratio, rep 2 = 1.23; low cell count flag = enough cells to score; activity call = inactive
Pigv | p65 translocation robust z-score = 0.98; nuclear/cytoplasmic p65 ratio, rep 1 = 1.64; nuclear/cytoplasmic p65 ratio, rep 2 = 1.76; low cell count flag = enough cells to score; activity call = inactive
Hbq1a | p65 translocation robust z-score = -0.56; nuclear/cytoplasmic p65 ratio, rep 1 = 1.49; nuclear/cytoplasmic p65 ratio, rep 2 = 1.56; low cell count flag = enough cells to score; activity call = inactive
Ift27 | p65 translocation robust z-score = 0.96; nuclear/cytoplasmic p65 ratio, rep 1 = 1.64; nuclear/cytoplasmic p65 ratio, rep 2 = 1.66; low cell count flag = enough cells to score; activity call = inactive
Foxf1 | p65 translocation robust z-score = 0.09; nuclear/cytoplasmic p65 ratio, rep 1 = 1.43; nuclear/cytoplasmic p65 ratio, rep 2 = 1.4; low cell count flag = enough cells to score; activity call = inactive
Lrit2 | p65 translocation robust z-score = -0.11; nuclear/cytoplasmic p65 ratio, rep 1 = 1.42; nuclear/cytoplasmic p65 ratio, rep 2 = 1.45; low cell count flag = enough cells to score; activity call = inactive
Or5g9 | p65 translocation robust z-score = 0.1; nuclear/cytoplasmic p65 ratio, rep 1 = 1.7; nuclear/cytoplasmic p65 ratio, rep 2 = 1.57; low cell count flag = enough cells to score; activity call = inactive
Irak1bp1 | p65 translocation robust z-score = -0.36; nuclear/cytoplasmic p65 ratio, rep 1 = 1.54; nuclear/cytoplasmic p65 ratio, rep 2 = 1.35; low cell count flag = enough cells to score; activity call = inactive
Tm4sf4 | p65 translocation robust z-score = -0.39; nuclear/cytoplasmic p65 ratio, rep 1 = 1.49; nuclear/cytoplasmic p65 ratio, rep 2 = 1.44; low cell count flag = enough cells to score; activity call = inactive
Pard3 | p65 translocation robust z-score = -0.05; nuclear/cytoplasmic p65 ratio, rep 1 = 1.41; nuclear/cytoplasmic p65 ratio, rep 2 = 1.43; low cell count flag = enough cells to score; activity call = inactive

Reformatted: entries from further up
{"Gene": "Or5g9", "p65 translocation robust z-score": 0.1, "nuclear/cytoplasmic p65 ratio, rep 1": 1.7, "nuclear/cytoplasmic p65 ratio, rep 2": 1.57, "low cell count flag": "enough cells to score", "activity call": "inactive"}
{"Gene": "Irak1bp1", "p65 translocation robust z-score": -0.36, "nuclear/cytoplasmic p65 ratio, rep 1": 1.54, "nuclear/cytoplasmic p65 ratio, rep 2": 1.35, "low cell count flag": "enough cells to score", "activity call": "inactive"}
{"Gene": "Tm4sf4", "p65 translocation robust z-score": -0.39, "nuclear/cytoplasmic p65 ratio, rep 1": 1.49, "nuclear/cytoplasmic p65 ratio, rep 2": 1.44, "low cell count flag": "enough cells to score", "activity call": "inactive"}
